Assay results: patent CN116063506A
These are yes or no findings as the source states them, for the method shown. Some entries that bind do so weakly or less than the wild type.

Biological target: CD4抗原 (表面抗原分化簇4, Cluster of Differentiation 4) (UniProt P01730)
Test: flow cytometry on mixed K562-CD4 and K562 cells, 1 μg antibody

B1: 分离的抗体(标记为CD4-14) (antibody, V domains shown)
VH: QVQLVQSGPELKKPGASVKVSCKASGYTFTDYVIHWVKQATGQGLEWIGEIYPGSGSAYSNAKFKDRVTMTADKSSNTAYMELSSLTSDDTAVYFCARRGNGTGFAYWGQGTLVTVSS
VL: DIVLTQSPASLAVSLGQRATITCKAGQSVDYDGDSYMNWYQQKPGQPPKLLIYVASNLESGIPARFSGSGSGTDFTLNIHPVEENDAATYYCQQSYKDPLTFGQGTKLEIK
binding: binds
